Reference: patent publication US20240270851A1 (US Dept. of Health and Human Services, published 2024)
Results are given in words; binding and its absence hold for the method and conditions named. Some entries that bind do so weakly or less than the wild type.

T1: canine PD-L1 on canine tumor cell line Jones (canine) (UniProt E2RKZ5)
T1 sequence: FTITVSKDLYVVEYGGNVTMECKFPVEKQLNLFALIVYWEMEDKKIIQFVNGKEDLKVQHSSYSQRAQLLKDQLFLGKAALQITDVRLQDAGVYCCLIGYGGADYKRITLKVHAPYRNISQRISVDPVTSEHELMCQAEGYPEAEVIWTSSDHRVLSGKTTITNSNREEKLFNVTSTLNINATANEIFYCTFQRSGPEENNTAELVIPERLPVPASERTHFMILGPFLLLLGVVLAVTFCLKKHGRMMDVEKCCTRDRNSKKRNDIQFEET


Tests used:
[1] = biological target: T1, canine PD-L1 on canine tumor cell line Jones (canine); assay: flow cytometry on canine tumor cell line Jones
[2] = biological target: T1, canine PD-L1 on canine tumor cell line Jones (canine); assay: flow cytometry on canine tumor cells Jones (column 'Canine')

Row | binding [1] | binding [2] | Binder
1 | binds |  | Shark VNAR B2 (VNAR, Shark VNAR single-domain antibody from the semi-synthetic 18AA CDR3 library; also called B2 nanobody; B2 clone) VNAR: ARVDQTPRSVTKETGESLTINCVLRDSSYALGSTYWYRKKSGSTNEESISKGGRYVETVNSGSKSFSLRINDLTVEDSGTYRCKYTSRLRREGPLSWDGNTVYGGGTVVTVN
2 | binds | binds | Shark VNAR F5 (VNAR, Shark VNAR single-domain antibody) VNAR: ARVDQTPRSVTKETGESLTINCVLRDTNYALGSTYWYRKKLGSTNEESISKGGRYVETVNSGSKSFSLRINDLTVEDSGTYRCKNLGHPMYIAGAICRPLPIYGGGTVVTVN
3 | binds | binds | Shark VNAR A11 (VNAR, Shark VNAR single-domain antibody) VNAR: ARVDQTPRSVTKETGESLTINCVLRDTSYALGSTYWYRKKSGSTNEESISKGGRYVETVNSGSKSFSLRINDLTVEDSGTYRCKFKSNTEFLNPLTVSMSTIYGGGTVVTVN
